# Assay results taken from the supplement of paper PMC8728848.
# The other results are listed elsewhere or left out.
# B1: PX14343G-pdi-535-24-535 (Parabacteroides distasonis) (protein)
# chain: LDTVPKDQLAPSTTWQTEADAKGFIVGCYKDLLDGNTLLYLDCGSDIGYNNFPWEGFRPWGDGSLSSSNPGQILYDYKSIRKANTFLENVDKVTFSSDAVKANYVAQAKAIRAYKYFLMNWWYGGVPIISSYSSADEAKVERNTEQEVRDYIAKDLDEALAGIAEAPEARGYIAKGAVLAIKMREALYYGDWQKAKDAAKAIIDLKQYELDPDYTNLFKVSGVDSKEIILADQNIETLDGLGTIGQMYNNVDQGWSSIVPTQNLVDMYEMSDGLTKEESKTYDAKHPFANRDPRMAMTILYPGRDWRGDVLNTLDEKLQDGTVNKNFPTYTDNASKSALTWAKYLDPMDQYGDVWSSGACPIVFRYAEVLLTYAEAANELSGPSDEIYGYLNQIRQRVGMGEVDKAKYGTKDKLRELIRRERTVELAGEGLRRADIVRWQEDGKMLAEKVMNGDLLRVTGTINYGESEPTKRAEITGTAVIETRQFSSRNRYLPIPQTSMDKNPNLKQNPGY
# Assays:
# Experiment in all cases: glycan array binding signal (z-score within array); higher = stronger binding
# Settings in all cases: glycan notation: IUPAC condensed, linker removed
# Gal3S6S(b1-4)GlcNAc = target: Gal3S6S(b1-4)GlcNAc
# In short: (§1)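 From the Consortium for Functional Glycomics database, 3228 arrays were curated, keeping only those whose protein sequence was available. Binding is given as a within-array Z-score averaged across arrays sharing a protein sequence and across linkers. Negative Z-scores can be read as non-binding.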
# Gal3S6S(b1-4)GlcNAc6S = target: Gal3S6S(b1-4)GlcNAc6S
# In short: as §1
# Gal4S(b1-4)GlcNAc = target: Gal4S(b1-4)GlcNAc
# In short: as §1
# Gal4S6S(b1-4)GlcNAc = target: Gal4S6S(b1-4)GlcNAc
# In short: as §1
# Gal6P(b1-4)GlcNAc = target: Gal6P(b1-4)GlcNAc
# In short: as §1
# Gal6S(b1-3)GlcNAc = target: Gal6S(b1-3)GlcNAc
# In short: as §1
# Gal6S(b1-3)GlcNAc6S = target: Gal6S(b1-3)GlcNAc6S
# In short: as §1
# Gal6S(b1-4)Glc = target: Gal6S(b1-4)Glc
# In short: as §1
# Gal6S(b1-4)Glc6S = target: Gal6S(b1-4)Glc6S
# In short: as §1
# Gal6S(b1-4)GlcNAc = target: Gal6S(b1-4)GlcNAc
# In short: as §1
# Gal6S(b1-4)GlcNAc6S = target: Gal6S(b1-4)GlcNAc6S
# In short: as §1
# GalNAc(a1-3)Gal = target: GalNAc(a1-3)Gal
# In short: as §1
# GalNAc(a1-3)GalNAc = target: GalNAc(a1-3)GalNAc
# In short: as §1
# [1] = target: GalNAc(a1-3)GalNAc(b1-3)Gal(a1-4)Gal(b1-4)Glc
# In short: as §1
# [2] = target: GalNAc(a1-3)GalNAc(b1-3)Gal(a1-4)Gal(b1-4)GlcNAc
# In short: as §1
# GalNAc(b1-3)Gal = target: GalNAc(b1-3)Gal
# In short: as §1
# [3] = target: GalNAc(b1-3)Gal(a1-4)Gal(b1-4)GlcNAc
# In short: as §1
# [4] = target: GalNAc(b1-3)Gal(a1-4)Gal(b1-4)GlcNAc(b1-3)Gal(b1-4)Glc
# In short: as §1
# [5] = target: GalNAc(b1-3)Gal(a1-6)Gal(b1-4)Glc
# In short: as §1
# GalNAc(b1-3)GalNAc = target: GalNAc(b1-3)GalNAc
# In short: as §1
# GalNAc(b1-3)GlcNAc = target: GalNAc(b1-3)GlcNAc
# In short: as §1
# GalNAc(b1-4)Gal(b1-4)Glc = target: GalNAc(b1-4)Gal(b1-4)Glc
# In short: as §1
# GalNAc(b1-4)GlcNAc = target: GalNAc(b1-4)GlcNAc
# In short: as §1
# [6] = target: GalNAc(b1-4)GlcNAc(b1-2)Man
# In short: as §1
# [7] = target: GalNAc(b1-4)GlcNAc(b1-2)Man(a1-3)[GalNAc(b1-4)GlcNAc(b1-2)Man(a1-6)]Man(b1-4)GlcNAc(b1-4)GlcNAc
# In short: as §1
# [8] = target: GalNAc(b1-4)GlcNAc(b1-3)GalNAc(b1-4)GlcNAc
# In short: as §1
# GalNAc(b1-4)GlcNAc6S = target: GalNAc(b1-4)GlcNAc6S
# In short: as §1
# GalNAc(b1-6)GalNAc = target: GalNAc(b1-6)GalNAc
# In short: as §1
# GalNAc3S(b1-4)GlcNAc = target: GalNAc3S(b1-4)GlcNAc
# In short: as §1
# GalNAc3S(b1-4)GlcNAc3S = target: GalNAc3S(b1-4)GlcNAc3S
# In short: as §1
# [9] = target: GalNAc3S(b1-4)[Fuc(a1-3)]GlcNAc
# In short: as §1
# GalNAc4S6S(b1-4)GlcNAc = target: GalNAc4S6S(b1-4)GlcNAc
# In short: as §1
# GalNAc6S(b1-4)GlcNAc = target: GalNAc6S(b1-4)GlcNAc
# In short: as §1
# Glc(a1-4)Glc = target: Glc(a1-4)Glc
# In short: as §1
# [10] = target: Glc(a1-4)Glc(a1-4)Glc(a1-4)Glc
# In short: as §1
# Glc(a1-6)Glc(a1-6)Glc = target: Glc(a1-6)Glc(a1-6)Glc
# In short: as §1
# [11] = target: Glc(a1-6)Glc(a1-6)Glc(a1-6)Glc
# In short: as §1
# Glc(b1-4)Glc = target: Glc(b1-4)Glc
# In short: as §1
binder,measurement,setting,value
B1,glycan array binding signal (z-score),Gal3S6S(b1-4)GlcNAc,0.193
same,glycan array binding signal (z-score),Gal3S6S(b1-4)GlcNAc6S,-0.415
same,glycan array binding signal (z-score),Gal4S(b1-4)GlcNAc,-0.268
same,glycan array binding signal (z-score),Gal4S6S(b1-4)GlcNAc,-0.635
same,glycan array binding signal (z-score),Gal6P(b1-4)GlcNAc,-0.509
same,glycan array binding signal (z-score),Gal6S(b1-3)GlcNAc,-0.74
same,glycan array binding signal (z-score),Gal6S(b1-3)GlcNAc6S,-0.027
same,glycan array binding signal (z-score),Gal6S(b1-4)Glc,-0.698
same,glycan array binding signal (z-score),Gal6S(b1-4)Glc6S,0.442
same,glycan array binding signal (z-score),Gal6S(b1-4)GlcNAc,-0.595
same,glycan array binding signal (z-score),Gal6S(b1-4)GlcNAc6S,-0.672
same,glycan array binding signal (z-score),GalNAc(a1-3)Gal,0.265
same,glycan array binding signal (z-score),GalNAc(a1-3)GalNAc,0.818
same,glycan array binding signal (z-score),[1],-0.212
same,glycan array binding signal (z-score),[2],0.409
same,glycan array binding signal (z-score),GalNAc(b1-3)Gal,-0.865
same,glycan array binding signal (z-score),[3],-0.442
same,glycan array binding signal (z-score),[4],0.782
same,glycan array binding signal (z-score),[5],1.05
same,glycan array binding signal (z-score),GalNAc(b1-3)GalNAc,1.43
same,glycan array binding signal (z-score),GalNAc(b1-3)GlcNAc,-0.329
same,glycan array binding signal (z-score),GalNAc(b1-4)Gal(b1-4)Glc,0.84
same,glycan array binding signal (z-score),GalNAc(b1-4)GlcNAc,-0.473
same,glycan array binding signal (z-score),[6],-2.07
same,glycan array binding signal (z-score),[7],1.28
same,glycan array binding signal (z-score),[8],-1.17
same,glycan array binding signal (z-score),GalNAc(b1-4)GlcNAc6S,-0.01
same,glycan array binding signal (z-score),GalNAc(b1-6)GalNAc,-0.038
same,glycan array binding signal (z-score),GalNAc3S(b1-4)GlcNAc,-0.044
same,glycan array binding signal (z-score),GalNAc3S(b1-4)GlcNAc3S,0.059
same,glycan array binding signal (z-score),[9],0.314
same,glycan array binding signal (z-score),GalNAc4S6S(b1-4)GlcNAc,0.279
same,glycan array binding signal (z-score),GalNAc6S(b1-4)GlcNAc,0.437
same,glycan array binding signal (z-score),Glc(a1-4)Glc,-0.422
same,glycan array binding signal (z-score),[10],0.888
same,glycan array binding signal (z-score),Glc(a1-6)Glc(a1-6)Glc,0.637
same,glycan array binding signal (z-score),[11],0.739
same,glycan array binding signal (z-score),Glc(b1-4)Glc,0.861

# A second format for some results above.
binder	measurement	setting	value
B1	glycan array binding signal (z-score)	[6]	-2.07
same	glycan array binding signal (z-score)	[7]	1.28
